The target in the assay is Nup62-Flag-EPEA (UniProt P37198). The experiment in a line: co-immunoprecipitation (pull-down of OGT or of Nup62) from transfected cells.

Chains of the proteins cited; added tags and fusions are not shown. Lines headed by an entry give the natural chain unless they say otherwise; changes in a name come on top.
UniProt P37198: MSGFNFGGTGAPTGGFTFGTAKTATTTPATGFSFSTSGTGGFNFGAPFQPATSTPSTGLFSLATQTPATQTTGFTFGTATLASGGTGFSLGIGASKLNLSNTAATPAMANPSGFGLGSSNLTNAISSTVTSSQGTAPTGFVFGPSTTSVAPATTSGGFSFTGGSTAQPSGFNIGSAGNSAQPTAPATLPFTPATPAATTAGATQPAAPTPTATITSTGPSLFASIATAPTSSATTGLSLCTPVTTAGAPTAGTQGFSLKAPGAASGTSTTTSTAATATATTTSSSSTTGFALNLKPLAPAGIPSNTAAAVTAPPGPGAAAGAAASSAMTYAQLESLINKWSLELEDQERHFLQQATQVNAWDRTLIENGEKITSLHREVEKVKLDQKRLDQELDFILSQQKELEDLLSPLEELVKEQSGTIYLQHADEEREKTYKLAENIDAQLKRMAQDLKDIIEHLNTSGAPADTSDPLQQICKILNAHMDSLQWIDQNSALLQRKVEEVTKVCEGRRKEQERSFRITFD

No constants are given. Whether binding was seen depends on the method and setting. Binding seen in cells or lysates may run through a third protein. Some binding calls cover weakened binding; strength is not graded here. Tags and fused reporters may be left off the sequences shown.

B1: HA-nEPEA-OGT(13) (protein)
chain: MAYPYDVPDYAAIAMGQLVESGGGSVQAGGSLRLSCAASGIDSSSYCMGWFRQRPGKEREGVARINGLGGVKTAYADSVKDRFTISRDNAENTVYLQMNSLKPEDTAIYYCAAKFSPGYCGGSWSNFGYWGQGTQVTVSSGAPEAAAKEAAAKEAAAKEAAAKGSMASSVGNVADSTEPTKRMLSFQGLAELAHREYQAGDFEAAERHCMQLWRQEPDNTGVLLLLSSIHFQCRRLDRSAHFSTLAIKQNPLLAEAYSNLGNVYKERGQLQEAIEHYRHALRLKPDFIDGYINLAAALVAAGDMEGAVQAYVSALQYNPDLYCVRSDLGNLLKALGRLEEAKACYLKAIETQPNFAVAWSNLGCVFNAQGEIWLAIHHFEKAVTLDPNFLDAYINLGNVLKEARIFDRAVAAYLRALSLSPNHAVVHGNLACVYYEQGLIDLAIDTYRRAIELQPHFPDAYCNLANALKEKGSVAEAEDCYNTALRLCPTHADSLNNLANIKREQGNIEEAVRLYRKALEVFPEFAAAHSNLASVLQQQGKLQEALMHYKEAIRISPTFADAYSNMGNTLKEMQDVQGALQCYTRAIQINPAFADAHSNLASIHKDSGNIPEAIASYRTALKLKPDFPDAYCNLAHCLQIVCDWTDYDERMKKLVSIVAEQLEKNRLPSVHPHHSMLYPLSHGFRKAIAERHGNLCLDKINVLHKPPYEHPKDLKLSDGRLRVGYVSSDFGNHPTSHLMQSIPGMHNPDKFEVFCYALSPDDGTNFRVKVMAEANHFIDLSQIPCNGKAADRIHQDGIHILVNMNGYTKGARNELFALRPAPIQAMWLGYPGTSGALFMDYIITDQETSPAEVAEQYSEKLAYMPHTFFIGDHANMFPHLKKKAVIDFKSNGHIYDNRIVLNGIDLKAFLDSLPDVKIVKMKCPDGGDNPDSSNTALNMPVIPMNTIAEAVIEMINRGQIQITINGFSISNGLATTQINNKAATGEEVPRTIIVTTRSQYGLPEDAIVYCNFNQLYKIDPSTLQMWANILKRVPNSVLWLLRFPAVGEPNIQQYAQNMGLPQNRIIFSPVAPKEEHVRRGQLADVCLDTPLCNGHTTGMDVLWAGTPMVTMPGETLASRVAASQLTCLGCLELIAKSRQEYEDIAVKLGTDLEYLKKIRGKVWKQRISSPLFNTKQYTMELERLYLQMWEHYAAGNKPDHMIKPVEVTESA
B1: the binding result is recorded as “binds”.
